Source: publication PMC4358870
No constants are given. Whether binding was seen depends on the method and setting. Binding seen in cells or lysates may run through a third protein. Some binding calls cover weakened binding; strength is not graded here.

Amino acid sequences for entries named in this document (tags omitted).
UniProt P49841: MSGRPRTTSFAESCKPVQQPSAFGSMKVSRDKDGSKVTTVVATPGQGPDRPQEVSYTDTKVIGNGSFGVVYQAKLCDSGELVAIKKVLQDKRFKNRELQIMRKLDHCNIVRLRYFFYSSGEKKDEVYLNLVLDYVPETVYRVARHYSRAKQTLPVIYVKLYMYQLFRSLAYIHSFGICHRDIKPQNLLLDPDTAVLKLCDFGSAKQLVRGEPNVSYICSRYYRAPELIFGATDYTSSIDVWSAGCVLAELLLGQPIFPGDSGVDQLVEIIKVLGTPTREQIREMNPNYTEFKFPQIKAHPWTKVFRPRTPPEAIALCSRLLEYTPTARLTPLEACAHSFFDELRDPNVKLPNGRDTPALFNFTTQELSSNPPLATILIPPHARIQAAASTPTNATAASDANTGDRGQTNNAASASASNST

Tests used:
[1] = target: T1, Astrocyte elevated gene-1 (AEG-1) (human) (UniProt Q86UE4); test: co-IP; AEG-1 complexes from lysates of transfected Slu-01 cells, immunoblot for GSK-3β and CKIδ; 4°C, 1 mg total protein, precleared; species-matched immunoglobulin as control
T1 sequence: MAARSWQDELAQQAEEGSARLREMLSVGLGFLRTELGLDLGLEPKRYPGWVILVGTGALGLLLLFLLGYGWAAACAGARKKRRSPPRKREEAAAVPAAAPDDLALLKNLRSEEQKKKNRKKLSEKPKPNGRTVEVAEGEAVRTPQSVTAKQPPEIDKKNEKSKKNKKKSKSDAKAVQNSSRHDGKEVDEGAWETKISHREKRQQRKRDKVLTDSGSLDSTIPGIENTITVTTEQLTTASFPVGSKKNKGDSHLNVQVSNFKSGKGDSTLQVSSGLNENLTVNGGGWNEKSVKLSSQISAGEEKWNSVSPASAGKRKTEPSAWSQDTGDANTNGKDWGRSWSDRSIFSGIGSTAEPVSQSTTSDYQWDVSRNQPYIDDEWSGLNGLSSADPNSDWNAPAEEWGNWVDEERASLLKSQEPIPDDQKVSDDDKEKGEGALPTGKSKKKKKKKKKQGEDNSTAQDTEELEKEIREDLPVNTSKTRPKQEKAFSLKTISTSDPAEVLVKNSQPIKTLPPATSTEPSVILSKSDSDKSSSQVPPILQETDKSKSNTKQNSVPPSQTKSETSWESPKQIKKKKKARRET

[2] = target: glycogen synthase kinase 3β (GSK-3β) (human (endogenous in Slu-01)) (UniProt P49841); test: co-IP; GSK-3β immunoprecipitated from lysates of Slu-01 cells overexpressing AEG-1, immunoblot; 4°C, 1 mg total protein, precleared; species-matched immunoglobulin as control

Molecule: glycogen synthase kinase 3β (GSK-3β) (from UniProt P49841 1-420)
- binding [1]: binds

B1: Astrocyte elevated gene-1 (AEG-1) (protein, UniProt Q86UE4 1-582)
chain: T1 sequence
- binding [2]: binds
